# Reference: publication PMC6692053
# Target: TdfH on the tdfJ mutant strain MCV928 (Neisseria gonorrhoeae (endogenous in strain MCV928, FA19 background))
# Test: far-Western, overlay or dot blot; whole cells (N. gonorrhoeae or E. coli) of a standardized optical density applied to nitrocellulose in a dot blot apparatus, blocked in 5% nonfat dry milk in low-salt TBS, probed 1 h with 0.2 μM S100A7-HRP in blocker, colorimetric (DAB) detection; only the binder purified
binder,measurement,value
"horseradish peroxidase (HRP)-labeled S100A7 (protein, UniProt P31151 1-101) MSNTQAERSIIGMIDMFHKYTRRDDKIEKPSLLTMMKENFPNFLSACDKKGTNYLADVFEKKDKNEDKKIDFSEFLSLLGDIATDYHKQSHGAAPCSGGSQ",binding,no binding (tested: 0.2 μM S100A7-HRP)

# These are yes or no findings as the source states them, for the method shown.
